# From patent US20070286867A1, “Combination Therapy” (Fusion Antibodies Limited, priority 2003, published 2007)
# Some of these results come from one statement about several compounds together.
# Legend:
# [1] = system: Fas; assay: Western blot of Fas expression in MCF-7 cells; type: cell-based; conditions: 72 hours, IC60 dose (5 μM 5-FU, 25 nM RTX)
# Procedure: (§1) Western Blotting. Western blots were performed as previously described (6). The Fas/CD95, Bc1-2 and BID (Santa Cruz Biotechnology, Santa Cruz, Calif.), caspase 8 (Oncogene Research Products, Darmstadt, Germany), p53 (Santa Cruz Biotechnology), and PARP (Pharmingen, BD Biosciences, Oxford, England) mouse monoclonal antibodies were used in conjunction with a horseradish peroxidase (HRP)-conjugated sheep anti-mouse secondary antibody (Amersham, Little Chalfont, Buckinghamshire, England). FasL rabbit polyclonal antibody (Santa Cruz Biotechnology) was used in conjunction with an HRP-conjugated donkey anti-rabbit secondary antibody (Amersham). TS sheep monoclonal primary antibody (Rockland, Gilbertsville, Pa.) was used in conjunction with an HRP-conjugated donkey anti-sheep secondary antibody (Serotech, Oxford, England). Equal loading was assessed using a β-tubulin mouse monoclonal primary antibody (Sigma).
# [2] = system: Fas; assay: Western blot of Fas expression in HCT116 p53 null cells; type: cell-based, human; conditions: 10 μM 5-FU, 50 nM RTX; 48 hours
# Procedure: as §1
SMILES,Fas protein up-regulation [1] [fold],induction of Fas expression [2]
"O=c1[nH]cc(F)c(=O)[nH]1 [5-FU, 5-fluorouracil]",> 10,2-3 fold
"Cc1nc2ccc(CN(C)c3ccc(C(=O)N[C@@H](CCC(=O)O)C(=O)O)s3)cc2c(=O)[nH]1 [RTX, ralitrexed]",> 10,–
